{"source": "PubChem BioAssay AID2685", "about": "(National Center for Advancing Translational Sciences (NCATS), 2010)", "experiment": "qHTS Assay for Lipid Storage Modulators in Drosophila S3 Cells;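 for cell number change: cells counted by Cell Tracker Red CMTPX staining in the red channel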", "conditions": "BODIPY lipid droplet fluorescence, 18-24 h; for cell number change: measured here: cell count max response, cells fed with added oleic acid", "in_short": "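Drosophila S3 cells got compounds at several concentrations plus oleic acid (400 uM solution). Laser-scanning cytometry with 488 nm excitation read lipid droplets at 500-530 nm and cells at 575-640 nm. Percent activity was relative to 20 uM Triacsin C.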", "key": {"[1]": {"conditions": "measured here: lipid fluorescence (Fed channel) AC50, cells fed with added oleic acid"}, "[2]": {"conditions": "measured here: cell number channel AC50, cells fed with added oleic acid"}}, "note": "This is one part of the list. Further columns of the screen follow, without active or inactive calls. Most of these compounds were active or inconclusive in the main read-out, so they are no random draw. Potencies come from curve fits of mixed quality, noted in brackets."}
{"smiles": "CCOC(=O)C1CCN(C(=O)Cn2cccc2C(=O)c2ccccc2)CC1", "values": [{"measurement": "AC50", "setting": "[1]", "value": "0.731 µM [falling, full curve]"}]}
{"smiles": "Cc1nnc(SCC(=O)NCc2ccc3c(c2)OCO3)s1", "values": [{"measurement": "cell number change", "value": -116, "unit": "%"}, {"measurement": "AC50", "setting": "[2]", "value": "29.1 µM [falling, single point]"}, {"measurement": "AC50", "setting": "[1]", "value": "29.1 µM [falling, single point]"}]}
{"smiles": "CCOC(=O)C(NC(C)=O)(NC(C)C)C(F)(F)F", "note": "(centres undefined)", "values": [{"measurement": "cell number change", "value": -37.8, "unit": "%"}]}
{"smiles": "O=c1c2ccccc2nc(/C=C/c2cccnc2)n1CCc1ccccc1", "values": [{"measurement": "cell number change", "value": 17.3, "unit": "%"}, {"measurement": "AC50", "setting": "[1]", "value": "5.8 µM [rising, partial curve]"}]}
{"smiles": "CC(Sc1nnc2c(n1)C1(C)CCC2C1(C)C)C(=O)Nc1ccccc1", "note": "(centres undefined)", "values": [{"measurement": "cell number change", "value": -27.3, "unit": "%"}, {"measurement": "AC50", "setting": "[1]", "value": "0.461 µM [falling, single point]"}]}
{"smiles": "CCOCCCNC(=S)Nc1cc(C)cc(C)c1", "values": [{"measurement": "cell number change", "value": -20.5, "unit": "%"}, {"measurement": "AC50", "setting": "[2]", "value": "0.291 µM [rising, full curve]"}]}
{"smiles": "COc1ccc(C(=O)CSc2n[nH]c(-c3ccncc3)n2)cc1[N+](=O)[O-]", "values": [{"measurement": "cell number change", "value": -57.7, "unit": "%"}, {"measurement": "AC50", "setting": "[2]", "value": "29.1 µM [falling, single point]"}, {"measurement": "AC50", "setting": "[1]", "value": "18.4 µM [rising, single point]"}]}
{"smiles": "Cc1ccc(S(=O)(=O)c2c(N)n(NC(=O)c3ccco3)c3nc4ccccc4nc23)cc1", "values": [{"measurement": "cell number change", "value": 0.166, "unit": "%"}, {"measurement": "AC50", "setting": "[2]", "value": "1.46 µM [rising, partial curve, poor fit]"}, {"measurement": "AC50", "setting": "[1]", "value": "23.1 µM [rising, single point]"}]}
{"smiles": "CCN(CC)CCNC(=O)CNC(=O)c1nn(-c2ccc(OC)cc2)c(=O)c2ccccc12", "values": [{"measurement": "cell number change", "value": -8.03, "unit": "%"}, {"measurement": "AC50", "setting": "[1]", "value": "0.00461 µM [falling, full curve, poor fit]"}]}
{"smiles": "COC(=O)c1sccc1NC(=O)COc1cccc(C)c1", "values": [{"measurement": "cell number change", "value": 7.68, "unit": "%"}, {"measurement": "AC50", "setting": "[1]", "value": "29.1 µM [rising, partial curve, poor fit]"}]}
{"smiles": "Cc1ccc(-n2nc3c(c2NC(=O)c2ccc4c(c2)OCO4)CS(=O)C3)c(C)c1", "note": "(centres undefined)", "values": [{"measurement": "cell number change", "value": 30.3, "unit": "%"}, {"measurement": "AC50", "setting": "[2]", "value": "13 µM [rising, single point]"}]}
{"smiles": "O=C(CC1NCCNC1=O)Nc1cccc([N+](=O)[O-])c1", "note": "(centres undefined)", "values": [{"measurement": "cell number change", "value": -17, "unit": "%"}, {"measurement": "AC50", "setting": "[2]", "value": "0.366 µM [falling, full curve, poor fit]"}, {"measurement": "AC50", "setting": "[1]", "value": "0.291 µM [falling, full curve, poor fit]"}]}
{"smiles": "COc1ccc(CCC(=O)Nc2cc(S(=O)(=O)N3CCCCC3)ccc2N(C)C)cc1", "values": [{"measurement": "cell number change", "value": 14, "unit": "%"}]}
{"smiles": "COc1ccc(OCc2cc(C(=O)NC(C)Cn3cncn3)no2)c(Cl)c1", "note": "(centres undefined)", "values": [{"measurement": "cell number change", "value": 13.2, "unit": "%"}, {"measurement": "AC50", "setting": "[1]", "value": "0.13 µM [rising, single point]"}]}
{"smiles": "O=C(CSc1nc2ccccc2[nH]1)N/N=C/C=C/c1ccccc1[N+](=O)[O-]", "values": [{"measurement": "cell number change", "value": 6.91, "unit": "%"}, {"measurement": "AC50", "setting": "[2]", "value": "0.461 µM [falling, full curve, poor fit]"}, {"measurement": "AC50", "setting": "[1]", "value": "7.31 µM [rising, partial curve]"}]}
{"smiles": "Cc1ccc(C(=O)/C=C\\Nc2ccc(C)c(C)c2)cc1", "values": [{"measurement": "cell number change", "value": 7.44, "unit": "%"}, {"measurement": "AC50", "setting": "[1]", "value": "2.31 µM [rising, full curve, poor fit]"}]}
{"smiles": "CCN1CCN(c2cc(C)c3cc(NC(=O)c4ccncc4)ccc3n2)CC1", "values": [{"measurement": "cell number change", "value": 49.6, "unit": "%"}, {"measurement": "AC50", "setting": "[2]", "value": "18.4 µM [rising, partial curve, poor fit]"}, {"measurement": "AC50", "setting": "[1]", "value": "32.6 µM [rising, partial curve, poor fit]"}]}
{"smiles": "CCN(CC)CCCNC(=O)CC1Sc2ccccc2NC1=O", "note": "(centres undefined)", "values": [{"measurement": "cell number change", "value": 25.4, "unit": "%"}, {"measurement": "AC50", "setting": "[1]", "value": "29.1 µM [rising, single point]"}]}
{"smiles": "O=c1cnn(-c2ccc(Cl)cc2Cl)c(-c2ccccc2)c1", "values": [{"measurement": "cell number change", "value": 207, "unit": "%"}, {"measurement": "AC50", "setting": "[2]", "value": "2.91 µM [falling, partial curve]"}, {"measurement": "AC50", "setting": "[1]", "value": "6.51 µM [falling, single point]"}]}
{"smiles": "C/C(=N\\NC(=S)NCc1ccccc1)c1ccc(Cl)cc1", "values": [{"measurement": "AC50", "setting": "[1]", "value": "2.59 µM [rising, full curve, poor fit]"}]}
{"smiles": "CCc1ccccc1Nc1nc(N)nc(COC(=O)c2cccn2C)n1", "values": [{"measurement": "cell number change", "value": 32.5, "unit": "%"}, {"measurement": "AC50", "setting": "[2]", "value": "1.84 µM [rising, full curve, poor fit]"}]}
{"smiles": "CCN(CC)S(=O)(=O)c1ccc(NC(=O)CNC2CCCCC2)cc1", "values": [{"measurement": "cell number change", "value": -33.3, "unit": "%"}, {"measurement": "AC50", "setting": "[2]", "value": "29.1 µM [falling, single point]"}]}
{"smiles": "CC(=O)N1CCC(=NNc2ccc(S(=O)(=O)N3CCOCC3)cc2[N+](=O)[O-])CC1", "values": [{"measurement": "cell number change", "value": -13.1, "unit": "%"}, {"measurement": "AC50", "setting": "[1]", "value": "6.51 µM [falling, single point]"}]}
{"smiles": "Cc1noc(NS(=O)(=O)c2ccc(NC(=O)C(C)(C)C)cc2)c1C", "values": [{"measurement": "cell number change", "value": 14.2, "unit": "%"}, {"measurement": "AC50", "setting": "[1]", "value": "29.1 µM [rising, single point]"}]}
{"smiles": "CCc1c(O)nc(SCC(=O)Nc2ccc(C)cc2)n(C2CCCCC2)c1=O", "values": [{"measurement": "cell number change", "value": 99, "unit": "%"}, {"measurement": "AC50", "setting": "[2]", "value": "23.1 µM [rising, partial curve]"}, {"measurement": "AC50", "setting": "[1]", "value": "0.731 µM [falling, full curve]"}]}
{"smiles": "Cc1ccc(S(=O)(=O)NCC(=O)N/N=C/c2ccc(Cl)cc2)cc1", "values": [{"measurement": "cell number change", "value": -43.9, "unit": "%"}, {"measurement": "AC50", "setting": "[2]", "value": "29.1 µM [falling, single point]"}, {"measurement": "AC50", "setting": "[1]", "value": "0.0058 µM [falling, full curve, poor fit]"}]}
{"smiles": "COCCCn1c(-c2ccc(Cl)cc2)n[nH]c1=S", "values": [{"measurement": "cell number change", "value": 1.02, "unit": "%"}, {"measurement": "AC50", "setting": "[2]", "value": "0.517 µM [falling, single point]"}, {"measurement": "AC50", "setting": "[1]", "value": "0.116 µM [falling, full curve, poor fit]"}]}
{"smiles": "Cc1sc(NC(=O)CN(Cc2ccc(F)cc2)C(=O)C(C)C)c(C(N)=O)c1C", "values": [{"measurement": "cell number change", "value": 23.5, "unit": "%"}, {"measurement": "AC50", "setting": "[1]", "value": "25.9 µM [rising, single point]"}]}
{"smiles": "CC(=O)c1c(C(C)=O)c(C)n(-c2nc(-c3ccc(Br)cc3)c(C)s2)c1C", "values": [{"measurement": "cell number change", "value": -17.1, "unit": "%"}, {"measurement": "AC50", "setting": "[2]", "value": "0.731 µM [rising, single point]"}, {"measurement": "AC50", "setting": "[1]", "value": "18.4 µM [rising, partial curve, poor fit]"}]}
{"smiles": "O=C(NNC(=O)c1ccccc1[N+](=O)[O-])Nc1ccc(Cl)cc1", "values": [{"measurement": "cell number change", "value": 21.4, "unit": "%"}, {"measurement": "AC50", "setting": "[1]", "value": "29.1 µM [rising, single point]"}]}
{"smiles": "Cc1ccc2nc(C)cc(OCC(=O)O)c2c1", "values": [{"measurement": "cell number change", "value": -0.369, "unit": "%"}]}
{"smiles": "O=C(NC1CCS(=O)(=O)C1)c1cnccn1", "note": "(centres undefined)", "values": [{"measurement": "cell number change", "value": 10.7, "unit": "%"}]}
{"smiles": "Cc1cc(OC(=O)c2ccccc2F)c([N+](=O)[O-])c(=O)[nH]1", "values": [{"measurement": "cell number change", "value": -16.5, "unit": "%"}]}
{"smiles": "Cc1ccc(S(=O)(=O)N2[C@@H](c3ccc(Cl)cc3)C(C(=O)O)=CC[C@H]2c2ccc(Cl)c(Cl)c2)cc1", "values": [{"measurement": "cell number change", "value": -22.1, "unit": "%"}]}
{"smiles": "NS(=O)(=O)c1ccc(CNC(=O)/C=C/c2c(F)cccc2Cl)cc1", "values": [{"measurement": "cell number change", "value": -35.7, "unit": "%"}, {"measurement": "AC50", "setting": "[2]", "value": "11.6 µM [falling, partial curve]"}]}
{"smiles": "Cc1ccc(S(=O)(=O)N2CCN(C(=O)c3ccc4nc[nH]c4c3)CC2)cc1", "values": [{"measurement": "cell number change", "value": 28.5, "unit": "%"}]}
